Values from PubChem BioAssay AID652272 (Drosophila RNAi Screening Center, 2013)
Purpose: 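Genes whose knock-down decreases or increases Hedgehog reporter output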 (primary screen). Cell system: Drosophila clone 8 (Cl8) cells. Reagents: long dsRNA against Drosophila genes. Read-out: 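Plate reader light from a firefly reporter under a ptc promoter fragment that responds to Hedgehog, with Renilla light as transfection reference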. Direction: firefly Hh reporter signal: higher = more ptc reporter light; Renilla reference signal: higher = more Renilla control light. Active means: 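Called a hit if the two-replicate mean z-score lies below -2 or above +3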. Calls: active = hit: reporter lowered or raised; inactive = not a hit.
The screen tested about 21,000 reagents; this is an unselected part of those with a known target gene and a result. In the full data, 503 (2.4%) got an active call. 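Raw plate light values, not normalised; calls rest on replicate z-scores that were not deposited; hits include reporter decreases as well as increases.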 Reagent sequences are not shown. Not stated in the record: the amount of reagent, the time to read-out.

Silencing of CG14397 (GeneID 8674022) [DRSC02381] gave: firefly Hh reporter signal, replicate 1 = 1.01e5; firefly Hh reporter signal, replicate 2 = 58144; Renilla reference signal, replicate 1 = 2556; Renilla reference signal, replicate 2 = 4996; inactive.
Depletion of Vha100-1 (GeneID 43442) [DRSC14148] came out at: firefly Hh reporter signal, replicate 1 = 81609; firefly Hh reporter signal, replicate 2 = 90026; Renilla reference signal, replicate 1 = 1888; Renilla reference signal, replicate 2 = 2170; inactive.
For CG9344 (GeneID 37372) [DRSC04541], the entry reads firefly Hh reporter signal, replicate 1 = 1.04e5; firefly Hh reporter signal, replicate 2 = 58898; Renilla reference signal, replicate 1 = 2870; Renilla reference signal, replicate 2 = 5749; inactive.
Knock-down of Gcna (GeneID 31139) [DRSC18553] resulted in: firefly Hh reporter signal, replicate 1 = 1.83e5; firefly Hh reporter signal, replicate 2 = 1.08e5; Renilla reference signal, replicate 1 = 4444; Renilla reference signal, replicate 2 = 3316; inactive.
mam (GeneID 36555) [DRSC05468] showed firefly Hh reporter signal, replicate 1 = 21133; firefly Hh reporter signal, replicate 2 = 66710; Renilla reference signal, replicate 1 = 1057; Renilla reference signal, replicate 2 = 3249; active.
Against mam (GeneID 36555) [DRSC07648], the values are firefly Hh reporter signal, replicate 1 = 39431; firefly Hh reporter signal, replicate 2 = 25825; Renilla reference signal, replicate 1 = 1292; Renilla reference signal, replicate 2 = 1872; inactive.
After knock-down of HINT1 (GeneID 33471) [DRSC00548], the screen gave firefly Hh reporter signal, replicate 1 = 1.21e5; firefly Hh reporter signal, replicate 2 = 88416; Renilla reference signal, replicate 1 = 2365; Renilla reference signal, replicate 2 = 2064; inactive.
Knock-down of Hou (GeneID 32852) [DRSC20001] gave: firefly Hh reporter signal, replicate 1 = 2.02e5; firefly Hh reporter signal, replicate 2 = 1.18e5; Renilla reference signal, replicate 1 = 4528; Renilla reference signal, replicate 2 = 2612; inactive.
Depletion of CG42713 (GeneID 10178890) [DRSC01050] came out at: firefly Hh reporter signal, replicate 1 = 6.22e5; firefly Hh reporter signal, replicate 2 = 2.16e5; Renilla reference signal, replicate 1 = 28976; Renilla reference signal, replicate 2 = 8315; inactive.
After knock-down of CG18324 (GeneID 36568) [DRSC06721], the record shows firefly Hh reporter signal, replicate 1 = 93820; firefly Hh reporter signal, replicate 2 = 55240; Renilla reference signal, replicate 1 = 3877; Renilla reference signal, replicate 2 = 2080; inactive.
For CG5506 (GeneID 39992) [DRSC10511], the values are firefly Hh reporter signal, replicate 1 = 1.05e5; Renilla reference signal, replicate 1 = 4596; Renilla reference signal, replicate 2 = 2881; inactive.
With knock-down of Ir40a (GeneID 35449) [DRSC03732] the results were firefly Hh reporter signal, replicate 1 = 61767; firefly Hh reporter signal, replicate 2 = 52971; Renilla reference signal, replicate 1 = 2023; Renilla reference signal, replicate 2 = 4993; inactive.
For Ir40a (GeneID 35449) [DRSC03733], the values are firefly Hh reporter signal, replicate 1 = 58061; firefly Hh reporter signal, replicate 2 = 61212; Renilla reference signal, replicate 1 = 1571; Renilla reference signal, replicate 2 = 5881; inactive.
For CG12935 (GeneID 36134) [DRSC06248], the entry reads firefly Hh reporter signal, replicate 1 = 78881; firefly Hh reporter signal, replicate 2 = 56659; Renilla reference signal, replicate 1 = 3733; Renilla reference signal, replicate 2 = 2313; inactive.
After knock-down of atlas (GeneID 37689) [DRSC04183] the results were firefly Hh reporter signal, replicate 1 = 97680; firefly Hh reporter signal, replicate 2 = 47485; Renilla reference signal, replicate 1 = 1140; Renilla reference signal, replicate 2 = 4621; inactive.
Against aus (GeneID 42531) [DRSC13471], the values are firefly Hh reporter signal, replicate 1 = 50123; firefly Hh reporter signal, replicate 2 = 1.54e5; Renilla reference signal, replicate 1 = 11220; Renilla reference signal, replicate 2 = 4551; inactive.
With knock-down of aus (GeneID 42531) [DRSC13473], the record shows firefly Hh reporter signal, replicate 1 = 57627; firefly Hh reporter signal, replicate 2 = 1.97e5; Renilla reference signal, replicate 1 = 13817; Renilla reference signal, replicate 2 = 5684; inactive.
With knock-down of aus (GeneID 42531) [DRSC15157], the screen gave firefly Hh reporter signal, replicate 1 = 72841; firefly Hh reporter signal, replicate 2 = 92081; Renilla reference signal, replicate 1 = 3377; Renilla reference signal, replicate 2 = 3814; inactive.
With knock-down of Flad1 (GeneID 32240) [DRSC19898] the results were firefly Hh reporter signal, replicate 1 = 1.01e5; firefly Hh reporter signal, replicate 2 = 66362; Renilla reference signal, replicate 1 = 2266; Renilla reference signal, replicate 2 = 1632; inactive.
After knock-down of CG11560 (GeneID 39376) [DRSC09843], the record shows firefly Hh reporter signal, replicate 1 = 1.43e5; firefly Hh reporter signal, replicate 2 = 85665; Renilla reference signal, replicate 1 = 5501; Renilla reference signal, replicate 2 = 3946; inactive.
With knock-down of l(3)72Dn (GeneID 39774) [DRSC10468], the screen gave firefly Hh reporter signal, replicate 1 = 69828; firefly Hh reporter signal, replicate 2 = 59802; Renilla reference signal, replicate 1 = 2826; Renilla reference signal, replicate 2 = 2916; inactive.
